# Measured values as given in publication PMC8953689.
# Where two headings read alike, the source gives them in different places. No constants are given. Whether binding was seen depends on the method and setting. In cells and extracts the contact can be indirect. Some entries that bind do so weakly or less than the wild type. Where a sequence is shown, tags or fusion partners need not be part of it.
# T1: FLAG-tagged PLIN5 (murine perilipin 5, wild type), expressed in HEK-293T (murine) (UniProt Q8BVZ1)
# T1 sequence: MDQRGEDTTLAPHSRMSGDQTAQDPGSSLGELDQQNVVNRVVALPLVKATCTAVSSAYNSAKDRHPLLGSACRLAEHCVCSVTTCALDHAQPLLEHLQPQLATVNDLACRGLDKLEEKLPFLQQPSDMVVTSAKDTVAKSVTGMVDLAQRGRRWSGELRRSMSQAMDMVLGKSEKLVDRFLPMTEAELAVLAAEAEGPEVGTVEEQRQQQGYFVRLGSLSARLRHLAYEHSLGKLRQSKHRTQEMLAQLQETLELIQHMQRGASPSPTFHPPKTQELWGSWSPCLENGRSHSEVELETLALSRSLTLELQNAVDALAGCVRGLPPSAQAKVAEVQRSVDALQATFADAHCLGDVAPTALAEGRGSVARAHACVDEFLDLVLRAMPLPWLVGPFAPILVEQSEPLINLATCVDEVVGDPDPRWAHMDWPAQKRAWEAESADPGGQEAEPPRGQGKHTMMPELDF
# T2: FLAG-tagged PLIN5(Δ424–463) (murine) (UniProt Q8BVZ1)
# T2 sequence: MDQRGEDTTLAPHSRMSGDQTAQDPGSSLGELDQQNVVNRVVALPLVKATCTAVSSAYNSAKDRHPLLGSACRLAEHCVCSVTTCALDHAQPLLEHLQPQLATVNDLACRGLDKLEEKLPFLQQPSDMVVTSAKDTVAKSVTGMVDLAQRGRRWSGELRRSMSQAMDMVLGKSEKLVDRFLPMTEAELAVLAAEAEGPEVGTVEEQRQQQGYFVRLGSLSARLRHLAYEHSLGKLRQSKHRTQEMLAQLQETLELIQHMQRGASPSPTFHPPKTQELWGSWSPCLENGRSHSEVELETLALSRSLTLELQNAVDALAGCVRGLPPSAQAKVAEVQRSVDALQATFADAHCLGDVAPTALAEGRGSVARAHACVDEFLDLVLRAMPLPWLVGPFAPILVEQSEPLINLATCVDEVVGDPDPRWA
# T3: FLAG-PLIN5(Δ444–463) (murine) (UniProt Q8BVZ1)
# T3 sequence: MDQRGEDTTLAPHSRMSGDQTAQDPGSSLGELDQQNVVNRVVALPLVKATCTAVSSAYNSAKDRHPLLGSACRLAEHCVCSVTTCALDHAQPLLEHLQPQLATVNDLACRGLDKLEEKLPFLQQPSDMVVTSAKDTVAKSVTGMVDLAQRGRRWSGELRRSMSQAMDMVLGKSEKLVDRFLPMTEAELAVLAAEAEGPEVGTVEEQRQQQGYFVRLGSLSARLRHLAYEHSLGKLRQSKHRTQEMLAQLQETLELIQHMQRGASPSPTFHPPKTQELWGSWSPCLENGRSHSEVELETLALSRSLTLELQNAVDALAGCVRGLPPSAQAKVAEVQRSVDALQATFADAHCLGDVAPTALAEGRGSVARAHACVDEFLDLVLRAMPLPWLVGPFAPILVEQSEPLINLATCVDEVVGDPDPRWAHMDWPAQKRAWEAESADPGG
# B1: Xpress-tagged ATGL (murine adipose triglyceride lipase) (enzyme, UniProt Q8BJ56-1 1-486)
# chain: MFPRETKWNISFAGCGFLGVYHIGVASCLREHAPFLVANATHIYGASAGALTATALVTGACLGEAGANIIEVSKEARKRFLGPLHPSFNLVKTIRGCLLKTLPADCHERANGRLGISLTRVSDGENVIISHFSSKDELIQANVCSTFIPVYCGLIPPTLQGVRYVDGGISDNLPLYELKNTITVSPFSGESDICPQDSSTNIHELRVTNTSIQFNLRNLYRLSKALFPPEPMVLREMCKQGYRDGLRFLRRNGLLNQPNPLLALPPVVPQEEDAEEAAVVEERAGEEDQLQPYRKDRILEHLPARLNEALLEACVEPKDLMTTLSNMLPVRLATAMMVPYTLPLESAVSFTIRLLEWLPDVPEDIRWMKEQTGSICQYLVMRAKRKLGDHLPSRLSEQVELRRAQSLPSVPLSCATYSEALPNWVRNNLSLGDALAKWEECQRQLLLGLFCTNVAFPPDALRMRAPASPTAADPATPQDPPGLPPC
# Experiments:
# Test in all cases: co-IP; HEK-293T cells cotransfected with FLAG-tagged and Xpress-tagged proteins; lysis in buffer A (50 mM Tris-HCl pH 7.4, 150 mM NaCl, 1 mM EDTA, 1% NP-40); FLAG-tagged proteins precipitated from postnuclear supernatants with Anti-Flag M2 affinity gel; copurifying proteins detected by immunoblot with tag-specific antibodies
# [1] = biological target: T1, FLAG-tagged PLIN5 (murine perilipin 5, wild type), expressed in HEK-293T (murine)
# [2] = biological target: T2, FLAG-tagged PLIN5(Δ424–463) (murine)
# [3] = biological target: T1, FLAG-tagged PLIN5 (murine perilipin 5, wild type), expressed in HEK-293T (murine); remark: listed apart in the source
# [4] = biological target: T3, FLAG-PLIN5(Δ444–463) (murine)
Molecule,binding [1],binding [2],binding [3],binding [4]
Xpress-tagged CGI-58 (murine comparative gene identification-58) (from UniProt Q9DBL9-1 1-351),binds,binds,–,–
B1,–,–,binds,binds
